# Inconclusive results, whose numbers are uncertain, are shown with a selection of clear calls. For some of these results: Where the call is inconclusive, the potency comes from a doubtful curve fit. Active and inactive are the calls of the source. Rule for the calls: active = hit-call score of the fitted dose curve at least 0.9, where 1 is the maximum; inconclusive = response in the unintended direction; inactive = score below 0.9.
# Protein sequences, listed by entry. Tags and fused reporters are not part of them. Lines headed by an entry give the natural chain unless they say otherwise; changes in a name come on top.
# UniProt P29350: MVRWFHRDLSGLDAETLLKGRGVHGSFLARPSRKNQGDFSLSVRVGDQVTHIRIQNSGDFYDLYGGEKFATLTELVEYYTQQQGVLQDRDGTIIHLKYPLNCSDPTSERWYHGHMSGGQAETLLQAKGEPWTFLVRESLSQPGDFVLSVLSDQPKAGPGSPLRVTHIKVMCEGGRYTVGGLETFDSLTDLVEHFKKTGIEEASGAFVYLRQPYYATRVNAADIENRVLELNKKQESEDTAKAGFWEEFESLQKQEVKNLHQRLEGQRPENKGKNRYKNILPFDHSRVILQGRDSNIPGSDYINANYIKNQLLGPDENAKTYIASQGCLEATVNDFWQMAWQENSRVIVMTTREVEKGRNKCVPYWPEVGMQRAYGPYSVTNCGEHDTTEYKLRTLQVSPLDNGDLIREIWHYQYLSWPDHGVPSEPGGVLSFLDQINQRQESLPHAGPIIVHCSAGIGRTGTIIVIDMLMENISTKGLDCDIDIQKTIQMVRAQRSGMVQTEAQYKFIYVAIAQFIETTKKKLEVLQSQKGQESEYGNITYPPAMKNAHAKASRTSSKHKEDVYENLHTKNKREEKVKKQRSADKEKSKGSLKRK
# UniProt P35372, whole entry, looked up: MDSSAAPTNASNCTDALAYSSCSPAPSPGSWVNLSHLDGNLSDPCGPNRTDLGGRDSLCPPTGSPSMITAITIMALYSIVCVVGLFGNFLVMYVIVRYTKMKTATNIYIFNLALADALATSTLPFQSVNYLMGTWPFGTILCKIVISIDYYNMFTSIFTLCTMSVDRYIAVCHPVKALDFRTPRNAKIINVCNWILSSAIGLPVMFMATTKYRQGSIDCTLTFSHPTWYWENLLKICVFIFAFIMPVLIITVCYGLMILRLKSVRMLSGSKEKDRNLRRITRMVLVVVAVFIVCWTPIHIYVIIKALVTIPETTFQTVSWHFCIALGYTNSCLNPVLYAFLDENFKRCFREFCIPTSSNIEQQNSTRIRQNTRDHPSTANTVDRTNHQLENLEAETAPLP
# UniProt O97775: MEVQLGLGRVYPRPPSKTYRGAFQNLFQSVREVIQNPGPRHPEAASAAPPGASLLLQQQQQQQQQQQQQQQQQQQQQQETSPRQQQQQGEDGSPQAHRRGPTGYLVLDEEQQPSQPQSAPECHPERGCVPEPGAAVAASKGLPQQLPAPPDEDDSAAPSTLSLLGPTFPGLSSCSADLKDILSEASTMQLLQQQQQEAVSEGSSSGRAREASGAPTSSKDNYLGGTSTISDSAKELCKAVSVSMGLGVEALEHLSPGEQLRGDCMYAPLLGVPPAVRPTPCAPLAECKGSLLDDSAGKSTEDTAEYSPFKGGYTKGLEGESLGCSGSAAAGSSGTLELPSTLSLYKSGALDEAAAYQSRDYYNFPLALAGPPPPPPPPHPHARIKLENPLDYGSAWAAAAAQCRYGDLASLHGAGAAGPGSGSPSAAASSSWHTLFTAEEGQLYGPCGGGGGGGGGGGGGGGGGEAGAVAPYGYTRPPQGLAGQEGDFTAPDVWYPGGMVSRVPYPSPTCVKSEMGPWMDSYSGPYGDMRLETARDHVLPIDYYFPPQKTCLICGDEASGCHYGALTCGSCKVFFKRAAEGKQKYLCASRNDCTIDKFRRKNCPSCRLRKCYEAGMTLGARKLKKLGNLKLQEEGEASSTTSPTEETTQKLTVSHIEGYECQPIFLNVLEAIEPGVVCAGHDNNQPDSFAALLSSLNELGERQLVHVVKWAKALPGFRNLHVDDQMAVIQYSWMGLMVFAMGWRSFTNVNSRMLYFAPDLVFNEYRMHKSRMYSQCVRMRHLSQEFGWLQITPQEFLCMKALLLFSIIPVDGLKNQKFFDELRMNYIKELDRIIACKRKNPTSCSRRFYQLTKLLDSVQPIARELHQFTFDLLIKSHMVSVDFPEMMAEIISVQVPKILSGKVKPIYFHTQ
# UniProt P56817: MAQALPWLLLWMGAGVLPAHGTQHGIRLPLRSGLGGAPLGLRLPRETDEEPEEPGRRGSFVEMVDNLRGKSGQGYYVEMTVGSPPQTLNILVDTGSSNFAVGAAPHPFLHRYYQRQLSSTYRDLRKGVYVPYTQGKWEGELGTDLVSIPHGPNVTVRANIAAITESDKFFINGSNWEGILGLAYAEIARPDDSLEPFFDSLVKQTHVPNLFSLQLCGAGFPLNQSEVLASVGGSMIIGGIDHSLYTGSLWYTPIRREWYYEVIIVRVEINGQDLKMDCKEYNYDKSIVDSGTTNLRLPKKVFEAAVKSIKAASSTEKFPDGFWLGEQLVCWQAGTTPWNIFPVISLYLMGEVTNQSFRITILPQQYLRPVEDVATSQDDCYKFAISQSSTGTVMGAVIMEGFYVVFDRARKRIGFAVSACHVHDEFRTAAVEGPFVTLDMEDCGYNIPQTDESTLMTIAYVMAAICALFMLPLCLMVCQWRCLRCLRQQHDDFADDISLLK
# UniProt Q12923: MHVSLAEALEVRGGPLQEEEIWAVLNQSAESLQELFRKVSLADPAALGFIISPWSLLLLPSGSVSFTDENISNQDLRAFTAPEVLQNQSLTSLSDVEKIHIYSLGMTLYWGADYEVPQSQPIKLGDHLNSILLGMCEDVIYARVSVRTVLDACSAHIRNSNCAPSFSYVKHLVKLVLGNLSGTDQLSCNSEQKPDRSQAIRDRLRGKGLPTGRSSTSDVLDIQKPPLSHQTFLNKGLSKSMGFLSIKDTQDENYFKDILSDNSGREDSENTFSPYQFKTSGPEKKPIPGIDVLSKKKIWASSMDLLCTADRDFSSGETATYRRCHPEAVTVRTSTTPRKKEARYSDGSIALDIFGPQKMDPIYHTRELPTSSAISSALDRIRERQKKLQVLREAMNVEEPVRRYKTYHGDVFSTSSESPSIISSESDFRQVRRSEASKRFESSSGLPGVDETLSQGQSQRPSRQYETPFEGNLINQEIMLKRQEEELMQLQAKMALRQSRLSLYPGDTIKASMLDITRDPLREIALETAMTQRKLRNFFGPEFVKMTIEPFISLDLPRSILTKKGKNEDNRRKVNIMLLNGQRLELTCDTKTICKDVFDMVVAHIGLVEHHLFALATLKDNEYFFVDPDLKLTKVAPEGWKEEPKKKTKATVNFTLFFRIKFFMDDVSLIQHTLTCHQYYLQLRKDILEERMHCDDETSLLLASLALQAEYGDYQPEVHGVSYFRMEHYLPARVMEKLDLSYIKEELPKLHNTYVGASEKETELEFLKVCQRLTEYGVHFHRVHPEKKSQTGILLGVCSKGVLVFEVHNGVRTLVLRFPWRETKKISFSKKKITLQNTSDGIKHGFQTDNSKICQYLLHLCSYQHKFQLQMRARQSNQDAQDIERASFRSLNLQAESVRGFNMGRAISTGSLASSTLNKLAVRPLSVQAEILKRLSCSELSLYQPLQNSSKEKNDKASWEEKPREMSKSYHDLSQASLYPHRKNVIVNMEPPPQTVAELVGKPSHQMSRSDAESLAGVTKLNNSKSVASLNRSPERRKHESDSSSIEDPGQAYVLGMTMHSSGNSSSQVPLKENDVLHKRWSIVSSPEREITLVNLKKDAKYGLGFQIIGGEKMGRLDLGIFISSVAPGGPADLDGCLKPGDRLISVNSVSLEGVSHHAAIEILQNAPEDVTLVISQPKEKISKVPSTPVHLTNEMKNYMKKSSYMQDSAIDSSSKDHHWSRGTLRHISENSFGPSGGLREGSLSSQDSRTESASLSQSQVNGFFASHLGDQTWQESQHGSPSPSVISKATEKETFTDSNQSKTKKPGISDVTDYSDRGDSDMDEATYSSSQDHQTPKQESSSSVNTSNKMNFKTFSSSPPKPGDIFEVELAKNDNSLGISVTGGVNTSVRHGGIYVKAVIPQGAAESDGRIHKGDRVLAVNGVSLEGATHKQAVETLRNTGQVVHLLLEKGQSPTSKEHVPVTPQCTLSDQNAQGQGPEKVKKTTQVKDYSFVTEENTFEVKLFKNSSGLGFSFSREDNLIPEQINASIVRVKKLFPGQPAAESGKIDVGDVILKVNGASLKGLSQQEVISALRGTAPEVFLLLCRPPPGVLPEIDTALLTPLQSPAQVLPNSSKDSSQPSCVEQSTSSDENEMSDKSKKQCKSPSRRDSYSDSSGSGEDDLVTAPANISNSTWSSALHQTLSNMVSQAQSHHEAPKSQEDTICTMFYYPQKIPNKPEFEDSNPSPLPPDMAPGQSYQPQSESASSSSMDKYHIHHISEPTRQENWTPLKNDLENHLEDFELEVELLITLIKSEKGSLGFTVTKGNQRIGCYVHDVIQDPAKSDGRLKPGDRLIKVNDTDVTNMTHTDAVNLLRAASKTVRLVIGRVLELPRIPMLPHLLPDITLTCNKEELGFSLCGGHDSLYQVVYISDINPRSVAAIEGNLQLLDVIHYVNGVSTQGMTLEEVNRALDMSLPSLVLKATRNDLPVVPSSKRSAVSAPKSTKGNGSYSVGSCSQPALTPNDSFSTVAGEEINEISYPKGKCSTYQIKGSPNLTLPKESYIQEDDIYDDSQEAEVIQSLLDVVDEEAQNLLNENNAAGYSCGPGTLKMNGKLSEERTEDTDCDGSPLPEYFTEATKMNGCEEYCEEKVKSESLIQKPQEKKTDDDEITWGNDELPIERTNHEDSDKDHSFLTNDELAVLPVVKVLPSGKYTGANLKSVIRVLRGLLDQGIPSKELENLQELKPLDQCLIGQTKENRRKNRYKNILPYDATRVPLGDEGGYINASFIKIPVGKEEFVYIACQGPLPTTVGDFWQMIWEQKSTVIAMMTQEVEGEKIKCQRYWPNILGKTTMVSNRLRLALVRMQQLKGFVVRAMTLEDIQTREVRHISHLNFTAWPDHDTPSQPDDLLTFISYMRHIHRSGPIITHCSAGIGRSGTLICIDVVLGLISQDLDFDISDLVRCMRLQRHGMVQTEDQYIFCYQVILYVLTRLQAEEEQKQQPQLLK
# UniProt P43378: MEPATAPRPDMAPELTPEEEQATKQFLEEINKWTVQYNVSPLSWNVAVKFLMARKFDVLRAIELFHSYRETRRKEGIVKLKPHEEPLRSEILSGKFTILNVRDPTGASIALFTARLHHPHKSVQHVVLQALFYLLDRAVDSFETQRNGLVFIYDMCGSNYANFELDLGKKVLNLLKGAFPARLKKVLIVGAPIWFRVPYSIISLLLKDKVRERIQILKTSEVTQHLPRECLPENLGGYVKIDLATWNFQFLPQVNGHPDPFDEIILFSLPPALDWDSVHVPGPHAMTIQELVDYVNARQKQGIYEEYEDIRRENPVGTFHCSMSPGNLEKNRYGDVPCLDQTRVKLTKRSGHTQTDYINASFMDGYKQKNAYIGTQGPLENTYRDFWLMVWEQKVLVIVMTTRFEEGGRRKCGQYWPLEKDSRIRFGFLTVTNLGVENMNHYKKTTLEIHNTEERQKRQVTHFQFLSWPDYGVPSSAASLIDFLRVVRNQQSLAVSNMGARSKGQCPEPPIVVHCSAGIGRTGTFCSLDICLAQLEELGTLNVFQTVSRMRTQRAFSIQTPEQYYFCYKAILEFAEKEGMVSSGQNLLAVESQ
# UniProt P10275: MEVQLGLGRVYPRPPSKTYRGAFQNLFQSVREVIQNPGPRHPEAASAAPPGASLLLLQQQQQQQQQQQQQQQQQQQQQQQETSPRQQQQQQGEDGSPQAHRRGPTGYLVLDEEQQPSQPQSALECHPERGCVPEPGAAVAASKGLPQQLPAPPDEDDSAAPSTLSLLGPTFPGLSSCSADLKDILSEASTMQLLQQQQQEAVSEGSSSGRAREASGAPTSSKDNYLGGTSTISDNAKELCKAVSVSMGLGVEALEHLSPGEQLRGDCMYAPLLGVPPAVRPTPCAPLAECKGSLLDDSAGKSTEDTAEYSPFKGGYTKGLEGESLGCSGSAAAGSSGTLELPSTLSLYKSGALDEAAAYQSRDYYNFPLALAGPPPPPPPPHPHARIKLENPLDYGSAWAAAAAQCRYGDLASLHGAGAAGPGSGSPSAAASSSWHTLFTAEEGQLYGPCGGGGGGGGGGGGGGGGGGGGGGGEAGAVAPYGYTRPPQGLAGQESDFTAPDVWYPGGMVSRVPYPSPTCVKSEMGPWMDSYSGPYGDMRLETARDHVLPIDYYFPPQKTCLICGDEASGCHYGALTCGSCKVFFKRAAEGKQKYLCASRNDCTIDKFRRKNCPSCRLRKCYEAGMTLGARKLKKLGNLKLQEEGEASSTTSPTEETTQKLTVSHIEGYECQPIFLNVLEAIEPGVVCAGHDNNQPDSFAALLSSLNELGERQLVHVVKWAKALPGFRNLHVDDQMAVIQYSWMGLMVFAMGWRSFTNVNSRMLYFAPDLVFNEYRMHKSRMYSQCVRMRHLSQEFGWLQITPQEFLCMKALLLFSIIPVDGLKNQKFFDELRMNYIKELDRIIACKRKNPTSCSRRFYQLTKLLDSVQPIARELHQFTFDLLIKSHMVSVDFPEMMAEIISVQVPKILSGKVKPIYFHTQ
# Experiments:
# [1] = molecular target: human Protein Tyrosine Phosphatase Non-receptor Type 6 (PTPN6), PTPN6 (gene 5777) (UniProt P29350); assay: NVS_ENZ_hPTPN6: NovaScreen (NVS) Enzymatic Assay for human Protein Tyrosine Phosphatase Non-receptor Type 6 (PTPN6) (AID 2283210)
# In short: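 Cell-free assay with recombinant PTPN6 expressed in SF9 cells, fluorescent substrate, product separated from substrate by electrophoretic mobility shift; read 1.33 hours after dosing. Primary screen in duplicate at 25 uM, actives retested in concentration series; DMSO baseline.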
# [2] = molecular target: Adenosine receptor A1 (Bos taurus) (UniProt P28190); assay: NVS_GPCR_bAdoR_NonSelective: NovaScreen (NVS) G Protein-Coupled Receptor Assay for bovine Adenosine Receptor (AdoR), Non-selective Binding (AID 2283244)
# In short: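 Bovine striatal membranes, radioligand displacement binding, 1 h after dosing, filter-based scintillation counting. Screened in duplicate at 25 uM, then concentration-response up to 50 uM; loss of specific binding relative to DMSO.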
# [3] = Tanguay_ZF_120hpf_TR_legacy: (Legacy) Oregon State University Tanguay Lab 120 Hour Post-fertilization zebrafish Assay for Touch Response (AID 2283667)
# In short: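 Tropical 5D wild-type zebrafish embryos were exposed statically in sealed, foil-covered plates at 28C until 120 hpf, with 0.64% (vol/vol) final DMSO. Touch response was scored as present or absent; embryos that died were not scored.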
# [4] = NVS_IC_rCaBTZCHL: NovaScreen (NVS) Ion Channel Assay for Calcium Channel, Type L, Benzothiazepine Site (CaBTZCHL) (AID 2283337)
# In short: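 Competitive displacement of a site-specific radioligand from rat cortex membranes, measured as signal loss against DMSO baseline by filter radiodetection after 1.5 h. Single-point 25 uM primary screen.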
# [5] = molecular target: human Opioid Receptor Mu (Opiate Mu), OPRM1 (gene 4988) (UniProt P35372); assay: NVS_GPCR_hOpiate_mu: NovaScreen (NVS) G Protein-Coupled Receptor Assay for human Opioid Receptor Mu (Opiate Mu) (AID 2283290);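 note: hits lower bound tracer signal versus DMSO meaning displacement of the ligand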
# In short: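 Radioligand displacement binding on membranes from CHO cells expressing the receptor, 2.5 h after dosing, filter-based scintillation counting; loss of signal vs DMSO baseline. Screened in duplicate at 25 uM, actives then run in concentration series.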
# [6] = molecular target: chimpanzee Androgen Receptor (AR), AR (gene 747460) (UniProt O97775); assay: NVS_NR_cAR: NovaScreen (NVS) Nuclear Receptor Binding Assay for chimpanzee Androgen Receptor (AR) (AID 2283346);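 note: radioligand displacement from AR measured by scintillation counting in a cell-free assay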
# In short: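 Cell-free radioligand displacement using receptor protein extracted from Sf9/Sf21 cells; bound radioligand measured by scintillation counting 72 hours after chemical dosing. Loss of signal versus DMSO baseline indicates binding; primary screen single-concentration in duplicate at 25 uM, actives followed in concentration series.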
# [7] = molecular target: human Thyroid Receptor Alpha (TRa), THRA (gene 7067) (UniProt P10827); assay: NVS_NR_hTRa_Antagonist: NovaScreen (NVS) Nuclear Receptor Binding Assay for human Thyroid Receptor Alpha Antagonism (TRa) (AID 2283362);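 note: activity is loss of signal relative to DMSO baseline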
# In short: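 Extracted protein, cell-free; 1 h incubation after dosing; AlphaLISA chemiluminescence binding readout. DMSO = baseline/neg ctrl; signal loss = activity. Primary: duplicate, 25 uM; secondary: conc. series on actives.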
# [8] = CCTE_Mundy_HCI_Cortical_NOG_NeuronCount: CCTE's Neurite Outgrowth Assay in rat cortical cells for Neuron Count, Mundy Lab (AID 2284236);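 note: neurons counted by imaging betaIII-tubulin and Hoechst stained cortical cells; cells exposed to compound for about 48 hours before fixation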
# In short: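 Read-out: neuron number by high-content imaging of betaIII-tubulin (Alexa Fluor-488) and Hoechst-labelled rat primary cortical cells.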
# [9] = CCTE_Mundy_HCI_hNP1_CellTiter: CCTE's Cell Titer-Glo 2 Assay in human neuroprogenitor cells for Viability, Mundy Lab (AID 2284241)
# In short: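 Measures ATP content in human neural progenitors derived from WA09 embryonic cells. Read-out at 26.5 hours after dosing, with DMSO serving as the negative control and baseline.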
# [10] = CCTE_Mundy_HCI_Cortical_Synap_Neur_Matur_NeuronCount: CCTE's Synaptogenesis and Neurite Maturation Assay in rat cortical cells for Neuron Count, Mundy Lab (AID 2284242);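 for AC50: neuron number from Hoechst nuclei and MAP2 staining by high-content imaging; hits reduce neuron count versus DMSO baseline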
# In short: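 Imaging-based neuron count in rat cortical cultures after chemical exposure from DIV 7 to DIV 12, with AraC added at DIV 5. Activity is fitted relative to DMSO.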
# [11] = Tanguay_ZF_120hpf_SWIM_legacy: (Legacy) Oregon State University Tanguay Lab 120 Hour Post-fertilization zebrafish Assay for Swim Bladder Malformation (AID 2283654);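 note: swim bladder malformation in each larva scored yes or no under brightfield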
# In short: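 Dechorionated Tropical 5D wild-type embryos, placed singly from 6 hpf, were statically exposed at 28C to 120 hpf with 0.64% DMSO final; swim bladder malformation was scored present/absent by brightfield microscopy, gain of signal relative to DMSO controls.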
# [12] = STM_H9_OrnCyssISnorm_ratio: Stemina devTOX quickPredict H9 human embryonic stem cell (hESC)-based Assay for Ornithine (ORN):Cystine (CYSS) Ratio (AID 2283714)
# In short: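 Undifferentiated H9 hESCs were exposed to compound for 72h with media and chemical replaced every 24h. Final 24-h conditioned media were deproteinized and analysed by UPLC-HRMS. ORN and CYSS peak areas were normalized to C13 internal standards and the ratio taken versus 0.1% DMSO.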
# [13] = molecular target: mouse Estrogen Receptor alpha (Era), Esr1 (gene 13982) (UniProt P19785); assay: NVS_NR_mERa: NovaScreen (NVS) Nuclear Receptor Binding Assay for mouse Estrogen Receptor alpha (Era) (AID 2283378);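 note: hit means loss of bound radioligand signal relative to DMSO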
# In short: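 Extracted mouse Era incubated with tritiated or iodinated radioligand plus test chemical, 18 h. Bound fraction separated on filters, counted by scintillation. DMSO = negative control/baseline; duplicate single-point at 25 uM, then concentration-response follow-up.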
# [14] = molecular target: human Beta-secretase (BACE), BACE1 (gene 23621) (UniProt P56817); assay: NVS_ENZ_hBACE: NovaScreen (NVS) Enzymatic Assay for human Beta-secretase (BACE) (AID 2283140);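 note: hits are inhibitors that reduce fluorescent substrate signal versus DMSO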
# In short: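 Recombinant BACE1 (SF9 extract) incubated with compound and fluorescent substrate, 1 h. Plates carried positive and DMSO negative controls. Initial single dose 25 uM, duplicate; confirmation by concentration series.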
# [15] = molecular target: Tyrosine-protein phosphatase non-receptor type 13 (Homo sapiens) (UniProt Q12923); assay: NVS_ENZ_hPTPN13: NovaScreen (NVS) Enzymatic Assay for human Protein Tyrosine Phosphatase Non-receptor Type 13 (PTPN13) (AID 2283205)
# In short: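 Cell-free assay of recombinant human PTPN13 with a fluorescent substrate, product separated by electrophoretic mobility shift and read 0.5 h after dosing. Primary screen at 25 uM in duplicate, then concentration-response up to 50 uM. Loss of signal fitted against DMSO.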
# [16] = molecular target: human Protein Tyrosine Phosphatase Non-receptor Type 9 (PTPN9), PTPN9 (gene 5780) (UniProt P43378); assay: NVS_ENZ_hPTPN9: NovaScreen (NVS) Enzymatic Assay for human Protein Tyrosine Phosphatase Non-receptor Type 9 (PTPN9) (AID 2283209)
# In short: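 Sf9-expressed enzyme in a cell-free assay, fluorescence read 1.33 h after dosing with mobility-shift separation of substrate and product. Tested at 25 uM in duplicate, then up to 50 uM; signal loss versus DMSO.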
# [17] = CCTE_Shafer_MEA_acute_LDH: CCTE's Lactate Dehydrogenase Assay for Cytotoxicity in the Neural Acute Assay, Shafer Lab (AID 2284086);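 note: active means LDH release rises above DMSO vehicle level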
# In short: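 Released lactate dehydrogenase, read at 490 nm, indicated cytotoxicity after acute 40-min compound treatment of rat cortical neuron networks grown on 48-well MEA plates.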
# [18] = molecular target: human Janus Kinase 2 (Jak2), JAK2 (gene 3717) (UniProt O60674); assay: NVS_ENZ_hJak2: NovaScreen (NVS) Enzymatic Assay for human Janus Kinase 2 (Jak2) (AID 2283169)
# In short: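 Cell-free recombinant human JAK2 enzyme activity assay, fluorescence/electrophoretic mobility shift read 1 h after dosing. Screened in duplicate at 25 uM, then concentration-response up to 50 uM; activity as signal loss relative to DMSO.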
# [19] = CCTE_Shafer_MEA_dev_LDH: CCTE's Lactate Dehydrogenase Assay for Cytotoxicity in the Neural Network Formation Assay, Shafer Lab (AID 2284068);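 note: exposure for twelve days from plating with re-dosing on DIV 5 and 9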
# In short: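 Primary rat cortical neurons were plated on PEI/laminin MEA plates and exposed from day 0 for twelve days, with compound renewed at DIV 5 and 9. Cytotoxicity was determined by spectrophotometric LDH assay relative to DMSO.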
# AR (gene 367) = AR (gene 367) (UniProt P10275); assay: ACEA_AR_antagonist_80hr: ACEA Biosciences xCELLigence Real-Time Cell Analysis on Androgen Receptor Antagonism for Proliferation (AID 2283787);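 note: 22Rv1 human prostate cancer cells with growth followed by electrical impedance; hits lower the impedance growth signal relative to DMSO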
# In short: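 Impedance readout (RT-CES), 80 h post-dose; loss-of-signal vs DMSO baseline. 22Rv1 cells in assay medium. Compounds: 8-pt 1:4 series, max 100 uM final, up to 0.5% DMSO; n = 2.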
structure (smiles),measurement,setting,value
CCCC(=O)O,AC50,[1],inconclusive: 25 µM
same,AC50,[2],inconclusive: 3.7 µM
CCCCOCCO,AC50,[3],inconclusive: 198 µM
CCCCCCCCCCCCCCCCCC[N+](C)(C)Cc1ccccc1,outcome,[4],inactive
NC(=O)N(O)[C@@H]1C=C[C@H](Oc2cccc(Oc3ccc(F)cc3)c2)C1,outcome,[5],inactive
same,AC50,[4],inconclusive: 0.107 µM
C[C@H]1O[C@@H](O[C@H]2[C@@H](O)C[C@H](O[C@H]3[C@@H](O)C[C@H](O[C@H]4CC[C@@]5(C)[C@H](CC[C@@H]6[C@@H]5C[C@@H](O)[C@]5(C)[C@@H](C7=CC(=O)OC7)CC[C@]65O)C4)O[C@@H]3C)O[C@@H]2C)C[C@H](O)[C@@H]1O,AC50,[6],inconclusive: 16.9 µM
[O-]n1ccccc1=S.[O-]n1ccccc1=S.[Zn+2],AC50,[7],active: 1.1 µM
NC(N)=Nc1nc(CSCCC(N)=NS(N)(=O)=O)cs1,AC50,[8],inconclusive: 0.0001 µM
same,outcome,[9],inactive
same,AC50,[10],inconclusive: 0.0108 µM
On1ccccc1=S,outcome,[5],inactive
same,AC50,[7],active: 9.11 µM
same,AC50,[11],active: 0.0615 µM
same,AC50,[12],active: 7.94 µM
COc1cc(NC(=O)CC(C)=O)c(OC)cc1Cl,AC50,[13],inconclusive: 46.1 µM
OCCCCC(O)CO (stereo not given),AC50,[14],inconclusive: 5.71 µM
CCOC(=O)C(C)(C)Oc1ccc(Cl)cc1,outcome,[15],inactive
same,outcome,[16],inactive
same,AC50,[5],inconclusive: 25 µM
same,outcome,[17],inactive
CC(C)NCC(O)c1ccc(O)c(O)c1 (stereo not given),outcome,[18],inactive
same,AC50,[15],inconclusive: 0.585 µM
same,AC50,[16],inconclusive: 0.0109 µM
same,AC50,[6],inconclusive: 25 µM
CN(C)C(=O)NC1(c2ccccc2)CCN(CC[C@@]2(c3ccc(F)c(F)c3)CN(C(=O)c3ccccc3)CCO2)CC1,AC50,[16],inconclusive: 6.07 µM
S=c1[nH]c2ccccc2s1,AC50,[1],inconclusive: 5.91 µM
O=C(C(=O)c1ccccc1)c1ccccc1,AC50,[14],inconclusive: 0.0648 µM
COC(=O)C(C)Oc1ccc(Oc2ncc(C(F)(F)F)cc2Cl)cc1 (stereo not given),AC50,[13],active: 0.164 µM
CCCCOC(=O)CCCCC(=O)OCCCC,AC50,[18],inconclusive: 25 µM
same,outcome,[15],inactive
CC(C)Cc1ccc(C(C)C(=O)O)cc1 (stereo not given),AC50,[8],inconclusive: 0.000197 µM
same,outcome,[10],inactive
Cn1c(=O)c2c(ncn2C)n(C)c1=O,AC50,[12],inconclusive: 157 µM
same,AC50,[19],inconclusive: 0.003 µM
same,AC50,[17],inconclusive: 20 µM
same,AC50,[8],inconclusive: 0.00246 µM
same,outcome,[10],inactive
O=C1c2ccccc2C(=O)c2c(O)ccc(O)c21,AC50,[12],active: 10 µM
CCCCC1C(=O)N(c2ccccc2)N(c2ccccc2)C1=O,outcome,[12],inactive
c1cnc2c(c1)ccc1cccnc12,AC50,[7],active: 0.241 µM
O=C(NS(=O)(=O)/C=C/c1ccccc1)c1ccc(F)cc1Cl,AC50,[11],inconclusive: 151 µM
CCCCCCCCCCCCCCCC,AC50,[13],inconclusive: 25 µM
CC(O)CO (stereo not given),AC50,[2],inconclusive: 10.5 µM
same,AC50,[11],inconclusive: 4.79 µM
same,AC50,[19],inconclusive: 0.003 µM
Oc1ccc(Nc2ccccc2)cc1,outcome,[4],inactive
same,outcome,[13],inactive
CC(=O)Oc1ccccc1C(=O)O,AC50,[11],inconclusive: 69 µM
same,AC50,[3],inconclusive: 2.31 µM
same,AC50,[19],inconclusive: 10 µM
same,AC50,[17],inconclusive: 20 µM
same,AC50,[8],inconclusive: 0.000119 µM
same,outcome,[9],inactive
same,AC50,[10],inconclusive: 0.0003 µM
O=C(O)C(F)(F)C(F)(F)OC(F)(F)F,outcome,[9],inactive
CC(=O)OCC(COC(C)=O)OC(C)=O,AC50,[3],inconclusive: 3.49 µM
CNS(=O)(=O)c1cc(C(=O)N2CCC(CCN3C4CCC3CC(n3c(C)nc5ccccc53)C4)(c3cccc(F)c3)CC2)c(Cl)cc1F (stereo not given),AC50,[18],active: 10.2 µM
same,outcome,[15],inactive
O=C(c1ccccc1)c1ccccc1O,outcome,AR (gene 367),inactive
CC(CO)c1ccccc1 (stereo not given),AC50,[14],inconclusive: 6.52 µM
NC(=O)C(F)(F)C(F)(F)C(F)(F)C(F)(F)F,AC50,[19],inconclusive: 15 µM
CCc1cccc(C)c1N,AC50,[6],inconclusive: 25 µM
same,outcome,AR (gene 367),inactive
CCCCCCCCCCCCCOS(=O)(=O)O,AC50,AR (gene 367),inconclusive: 1.63 µM
CCOCCOCCO,AC50,AR (gene 367),inconclusive: 0.00061 µM
C=CC=CC=CCCCCC,AC50,[4],inconclusive: 0.0396 µM
O=c1c(-c2ccc(O)cc2)coc2cc(O)cc(O)c12,AC50,[2],active: 18.9 µM
same,outcome,[6],inactive
CCCCC(CC)COC(=O)c1ccc(C(=O)OCC(CC)CCCC)cc1 (stereo not given),AC50,[1],inconclusive: 25 µM

# Some of the entries so far, tab-delimited:
structure (smiles)	measurement	setting	value
CC(O)CO (stereo not given)	AC50	[19]	inconclusive: 0.003 µM
Oc1ccc(Nc2ccccc2)cc1	outcome	[4]	inactive
same	outcome	[13]	inactive
CC(=O)Oc1ccccc1C(=O)O	AC50	[11]	inconclusive: 69 µM
same	AC50	[3]	inconclusive: 2.31 µM
same	AC50	[19]	inconclusive: 10 µM
same	AC50	[17]	inconclusive: 20 µM
